The record followed here is the supplement of paper PMC11006884.

Sequences of proteins named here, by UniProt entry; tags and fusion partners are left off. A change or cut given only in a name is not applied to a line headed by its entry.
UniProt Q6PCT2: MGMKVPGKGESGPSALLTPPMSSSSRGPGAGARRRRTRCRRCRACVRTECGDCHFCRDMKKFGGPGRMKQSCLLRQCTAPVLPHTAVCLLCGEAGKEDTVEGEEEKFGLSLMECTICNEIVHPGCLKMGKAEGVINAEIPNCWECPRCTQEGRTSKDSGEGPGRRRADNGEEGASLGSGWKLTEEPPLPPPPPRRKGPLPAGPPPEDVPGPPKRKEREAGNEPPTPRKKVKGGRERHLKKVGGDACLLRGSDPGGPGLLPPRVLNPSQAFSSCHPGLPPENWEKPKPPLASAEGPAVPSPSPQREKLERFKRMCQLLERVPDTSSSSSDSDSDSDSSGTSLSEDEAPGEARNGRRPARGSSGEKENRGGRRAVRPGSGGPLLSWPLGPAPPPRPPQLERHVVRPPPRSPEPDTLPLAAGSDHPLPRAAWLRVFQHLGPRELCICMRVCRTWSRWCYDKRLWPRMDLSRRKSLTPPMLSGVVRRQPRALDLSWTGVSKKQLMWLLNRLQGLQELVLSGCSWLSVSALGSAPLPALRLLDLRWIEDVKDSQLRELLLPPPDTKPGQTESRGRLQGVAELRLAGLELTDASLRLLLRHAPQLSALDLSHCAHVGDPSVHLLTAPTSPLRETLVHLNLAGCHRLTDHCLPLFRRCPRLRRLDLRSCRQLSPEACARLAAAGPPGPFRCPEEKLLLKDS
UniProt Q5VUA4: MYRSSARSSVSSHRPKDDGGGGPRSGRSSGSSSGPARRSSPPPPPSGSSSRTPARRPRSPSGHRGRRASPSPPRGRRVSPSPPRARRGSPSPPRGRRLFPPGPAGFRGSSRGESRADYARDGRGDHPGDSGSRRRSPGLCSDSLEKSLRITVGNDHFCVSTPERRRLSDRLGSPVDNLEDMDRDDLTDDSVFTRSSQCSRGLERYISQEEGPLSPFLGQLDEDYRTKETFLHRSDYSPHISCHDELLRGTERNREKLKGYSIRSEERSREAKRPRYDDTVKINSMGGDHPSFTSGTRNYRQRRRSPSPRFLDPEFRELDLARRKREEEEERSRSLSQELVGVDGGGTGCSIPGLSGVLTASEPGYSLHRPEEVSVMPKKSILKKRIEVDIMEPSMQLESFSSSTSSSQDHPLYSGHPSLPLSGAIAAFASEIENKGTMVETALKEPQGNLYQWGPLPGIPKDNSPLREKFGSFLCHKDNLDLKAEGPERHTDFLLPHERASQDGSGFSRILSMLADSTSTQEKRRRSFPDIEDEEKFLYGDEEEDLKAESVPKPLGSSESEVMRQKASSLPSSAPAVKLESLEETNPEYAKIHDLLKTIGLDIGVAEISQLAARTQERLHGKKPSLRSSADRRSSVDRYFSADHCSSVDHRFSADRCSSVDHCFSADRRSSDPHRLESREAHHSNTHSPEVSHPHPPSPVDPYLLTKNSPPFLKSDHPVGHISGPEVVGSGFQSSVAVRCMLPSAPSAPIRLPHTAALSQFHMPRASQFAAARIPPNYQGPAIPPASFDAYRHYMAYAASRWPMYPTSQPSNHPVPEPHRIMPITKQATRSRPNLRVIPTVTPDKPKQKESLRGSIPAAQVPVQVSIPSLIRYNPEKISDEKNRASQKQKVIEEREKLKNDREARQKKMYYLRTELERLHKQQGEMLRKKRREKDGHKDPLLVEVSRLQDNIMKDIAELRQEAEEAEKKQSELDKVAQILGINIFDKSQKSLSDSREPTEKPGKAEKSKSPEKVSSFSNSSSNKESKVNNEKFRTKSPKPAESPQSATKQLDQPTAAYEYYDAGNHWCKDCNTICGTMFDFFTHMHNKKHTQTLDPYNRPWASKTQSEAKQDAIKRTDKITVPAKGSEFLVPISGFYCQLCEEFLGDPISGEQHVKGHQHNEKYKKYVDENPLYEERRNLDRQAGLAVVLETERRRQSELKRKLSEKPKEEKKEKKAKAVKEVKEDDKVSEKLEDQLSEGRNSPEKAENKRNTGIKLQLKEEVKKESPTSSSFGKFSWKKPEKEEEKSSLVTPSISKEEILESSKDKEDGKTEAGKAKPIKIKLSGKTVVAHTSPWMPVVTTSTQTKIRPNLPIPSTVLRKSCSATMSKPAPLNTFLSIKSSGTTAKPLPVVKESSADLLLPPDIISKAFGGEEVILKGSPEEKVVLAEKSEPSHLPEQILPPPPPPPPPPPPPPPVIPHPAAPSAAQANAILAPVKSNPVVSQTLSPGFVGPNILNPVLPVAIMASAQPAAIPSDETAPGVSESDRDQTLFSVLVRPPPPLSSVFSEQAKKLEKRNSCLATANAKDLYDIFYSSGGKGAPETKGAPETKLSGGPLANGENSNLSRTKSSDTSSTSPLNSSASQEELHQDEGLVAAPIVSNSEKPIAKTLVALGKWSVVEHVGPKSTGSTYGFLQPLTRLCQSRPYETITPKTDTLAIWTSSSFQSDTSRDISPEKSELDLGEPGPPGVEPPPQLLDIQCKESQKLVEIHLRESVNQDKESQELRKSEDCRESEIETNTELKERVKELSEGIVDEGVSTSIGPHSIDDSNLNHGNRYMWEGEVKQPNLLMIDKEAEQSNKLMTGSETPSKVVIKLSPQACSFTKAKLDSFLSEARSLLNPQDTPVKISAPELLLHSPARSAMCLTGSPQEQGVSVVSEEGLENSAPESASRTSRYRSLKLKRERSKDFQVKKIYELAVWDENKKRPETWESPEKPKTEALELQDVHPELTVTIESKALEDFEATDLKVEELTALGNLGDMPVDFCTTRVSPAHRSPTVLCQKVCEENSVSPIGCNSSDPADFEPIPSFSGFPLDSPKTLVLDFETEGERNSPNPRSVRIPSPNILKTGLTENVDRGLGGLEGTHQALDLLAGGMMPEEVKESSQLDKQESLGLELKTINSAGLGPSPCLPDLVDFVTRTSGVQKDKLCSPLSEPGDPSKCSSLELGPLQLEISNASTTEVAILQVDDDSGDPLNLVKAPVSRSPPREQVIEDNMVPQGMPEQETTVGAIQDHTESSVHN
UniProt Q6P2E9: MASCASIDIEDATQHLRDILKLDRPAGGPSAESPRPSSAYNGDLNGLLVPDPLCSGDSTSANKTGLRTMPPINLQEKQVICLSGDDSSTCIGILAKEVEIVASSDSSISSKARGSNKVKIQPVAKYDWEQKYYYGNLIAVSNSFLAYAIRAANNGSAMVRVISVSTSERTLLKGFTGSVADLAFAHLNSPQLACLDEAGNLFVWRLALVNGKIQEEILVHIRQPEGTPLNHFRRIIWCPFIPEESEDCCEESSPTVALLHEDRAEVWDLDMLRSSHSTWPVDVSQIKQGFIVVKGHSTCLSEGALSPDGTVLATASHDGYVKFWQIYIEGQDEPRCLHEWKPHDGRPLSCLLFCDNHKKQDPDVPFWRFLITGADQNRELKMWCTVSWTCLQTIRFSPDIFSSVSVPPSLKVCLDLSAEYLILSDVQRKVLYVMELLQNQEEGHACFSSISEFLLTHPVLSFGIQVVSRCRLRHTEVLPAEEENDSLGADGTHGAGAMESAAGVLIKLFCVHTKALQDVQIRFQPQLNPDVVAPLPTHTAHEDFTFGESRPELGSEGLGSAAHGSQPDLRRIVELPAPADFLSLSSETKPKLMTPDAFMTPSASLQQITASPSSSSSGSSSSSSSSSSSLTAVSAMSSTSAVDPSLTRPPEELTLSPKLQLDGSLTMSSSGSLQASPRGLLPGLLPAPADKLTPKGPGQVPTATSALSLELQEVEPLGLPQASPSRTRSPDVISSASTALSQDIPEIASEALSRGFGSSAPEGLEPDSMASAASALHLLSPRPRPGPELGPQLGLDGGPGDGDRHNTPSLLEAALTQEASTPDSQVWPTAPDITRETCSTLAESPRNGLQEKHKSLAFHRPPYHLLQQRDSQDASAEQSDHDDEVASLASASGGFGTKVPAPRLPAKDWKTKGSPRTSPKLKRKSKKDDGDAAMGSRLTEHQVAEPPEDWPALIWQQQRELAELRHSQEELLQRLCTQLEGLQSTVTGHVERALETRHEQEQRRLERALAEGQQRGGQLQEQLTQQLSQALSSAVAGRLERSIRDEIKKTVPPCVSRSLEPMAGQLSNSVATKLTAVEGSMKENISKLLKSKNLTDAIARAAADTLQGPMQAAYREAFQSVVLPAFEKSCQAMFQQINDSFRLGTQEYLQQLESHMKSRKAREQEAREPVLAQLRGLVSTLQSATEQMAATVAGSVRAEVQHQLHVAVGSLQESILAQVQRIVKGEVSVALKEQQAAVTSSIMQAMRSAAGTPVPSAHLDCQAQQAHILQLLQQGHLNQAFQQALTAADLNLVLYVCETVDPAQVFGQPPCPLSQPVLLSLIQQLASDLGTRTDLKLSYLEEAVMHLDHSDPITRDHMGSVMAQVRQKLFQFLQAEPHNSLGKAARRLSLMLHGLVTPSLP

The list shows a part of the results, in another mix than the full data. The data scatter; read single values as rough.

Compound in the experiment: COC(=O)/C=C/c1ccccc1 [methyl cinnamate]
The experiment is described as follows: log2 ratio of iodoacetamide-alkyne labeling of the cysteine site, DMSO over compound (competition); higher = stronger covalent engagement of the cysteine by the compound, active = 1 or more. The settings on record: 500 µM; treatment time 1 h; system: HEK293T cell lysate. Put shortly: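 HEK293T lysate (2 mg/mL) was incubated with electrophile (500 µM) or vehicle for 1 h at ambient temperature and then with iodoacetamide alkyne for 1 h. Labelled proteins were clicked to sCIP-TMT reagents, pooled, digested, enriched on streptavidin and measured by Orbitrap Eclipse LC-MS/MS with FAIMS, with FragPipe quantification. The per-cysteine log2 competition ratio is mean control-channel reporter intensity over mean compound-channel reporter intensity. Across three replicates with duplicate channels, cysteines quantified in only one replicate were excluded.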
On to FBXL19 C142 (UniProt Q6PCT2), for which the “log2 ratio of iodoacetamide-alkyne labeling” value (shortened to “log2 ratio”) was inactive: -0.0295.
As to UniProt Q69YN4_C353, the “log2 ratio” value is inactive: -0.0532.
In the case of ZNF318 C2168 (UniProt Q5VUA4), the “log2 ratio” value was inactive: 0.287.
For MTHFD1L C779 (UniProt Q6UB35), the “log2 ratio” value is inactive: 0.247.
Under UniProt Q5W0B1_C105 stands inactive: 0.0199.
Consider CEP170 C967 (UniProt Q5SW79), for which the “log2 ratio” value was inactive: 0.367.
Consider UniProt Q63HN8_C3008, for which the “log2 ratio” value is inactive: 0.304.
Under CEP350 C179 (UniProt Q5VT06) stands inactive: 0.252; under LARP1 C238 (UniProt Q6PKG0), inactive: 0.558; under MTHFD1L C906 (UniProt Q6UB35), inactive: -0.0412.
In the case of TET2 C332 (UniProt Q6N021) it was inactive: 0.368; in that of PAXIP1 C169 (UniProt Q6ZW49), inactive: 0.202.
Under DNAJC21 C444 (UniProt Q5F1R6) stands inactive: 0.0402.
With COQ5 C244 (UniProt Q5HYK3), the “log2 ratio” value is inactive: 0.143.
Under EDC4 C54 (UniProt Q6P2E9) stands inactive: 0.286; under TOR1AIP1 C424 (UniProt Q5JTV8), inactive: 0.125.
Turning to MAP1S C51 (UniProt Q66K74), the “log2 ratio” value was inactive: 0.28.
DHRS13 C268 (UniProt Q6UX07): the “log2 ratio” value is inactive: 0.0345.
Under AARS2 C750 (UniProt Q5JTZ9) stands inactive: 0.0701; under PITRM1 C241 (UniProt Q5JRX3), inactive: -0.0292; under UniProt Q712K3_C191, inactive: 0.201.
In the case of UniProt Q6P1J9_C397 it was inactive: 0.182.
